Data as given in PubChem BioAssay AID1487 (National Center for Advancing Translational Sciences (NCATS), 2009).
Values joined by “and” are separate entries in the source; they are usually repeats but may differ in a detail not shown here. Identical values can stand only once. The list shows a part of the results. Shown are side measurements of this screen, not its main read-out; they come without a call. Compounds called inactive in the main read-out are mostly missing here. Potencies come from curve fits of mixed quality, noted in brackets.

Assay: qHTS Assay for Modulators of Lamin A Splicing
Conditions: HeLa LMNA splicing GFP/RFP minigene ratio, 48 h
In short: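 S3 HeLa stable clones carrying a lamin A-EGFP splicing minigene plus DsRed2 were seeded at 600 cells/well in Opti-MEM with 2% FBS, pin-dosed and incubated 48 h at 37°C. Acumen cytometry (488 nm) gave the GFP/RFP total-intensity ratio.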

[1] = measured here: GFP splicing reporter channel
[2] = measured here: RFP viability control channel

SMILES | AC50 [1] | AC50 [2]
CCn1c(SCc2ccccc2C)nc(=O)c2c(C(=O)OC)cc(C3CC3)nc21 | 11.2 µM [falling, partial curve, poor fit] | 8.91 µM [falling, partial curve, poor fit]
Cc1cccn2c(=O)c3cc(C(=O)NCc4cccnc4)c(=N)n(C(C)C)c3nc12 |  | 10 µM [rising, partial curve, poor fit]
O=C(Nc1nnc(-c2cc(Cl)ccc2Cl)o1)c1ccc2c(c1)OCCO2 |  | 10 µM [rising, partial curve, poor fit]
COc1ccc(-c2nc(Cn3c(SCc4cccc(F)c4)nc4ccncc43)c(C)o2)cc1OC |  | 1.78 µM [rising, partial curve, poor fit]
Cc1cccc(NC(=S)N(Cc2cccc(Br)c2)CC2CCC(C(=O)O)CC2)c1 (stereo not drawn) | 2.24 µM [rising, partial curve, poor fit] | 
CCOC(=O)C1CCC(CN(Cc2ccc(OC)cc2)S(=O)(=O)c2ccc(F)c(C(=O)Nc3ccc(C)c(C)c3)c2)CC1 (stereo not drawn) | 0.355 µM [falling, full curve, poor fit] | 
CCCCOc1ccc(C(=O)NNC(=S)NC(=O)CC)cc1 |  | 5.01 µM [rising, partial curve]
FC(F)(F)c1nnc(-c2ccccc2)nc1Sc1ccccc1 | 12.6 µM [falling, single point] | 15.8 µM [falling, partial curve]
Cn1nc(-c2ccccn2)nc2c(=O)n(C)c(=O)nc1-2 |  | 4.47 µM [falling, full curve]
O=c1nc2n(c3sc4c(c13)CCCC4)C(CBr)CS2 (stereo not drawn) | 10 µM [rising, partial curve, poor fit] | 11.2 µM [rising, single point]
CCNc1ccc(S(=O)(=O)N(C)C)cc1[N+](=O)[O-] |  | 1.26 µM [falling, full curve, poor fit]
CNc1ccc(Br)cc(C(=O)/C=C/c2ccc(OC)cc2OC)c1=O | 10 µM [rising, single point] | 
O=C(Cc1cccs1)NC1C(=O)N2C(C(=O)[O-])=C(C[n+]3ccccc3)CSC12 (stereo not drawn) | 4.47 µM [rising, partial curve, poor fit] | 8.91 µM [rising, single point]
CN(Cc1cnc2nc(N)nc(N)c2n1)c1ccc(C(=O)N[C@@H](CCC(=O)O)C(=O)O)cc1 | 0.00447 µM [falling, full curve, poor fit] | 4.47 nM [rising, full curve, poor fit] and 28.2 nM [rising, full curve, poor fit]
CCc1ccccc1NC(=O)c1cc(S(=O)(=O)N2CCc3ccccc32)ccc1F | 0.00631 µM [falling, full curve, poor fit] | 0.00501 µM [falling, full curve, poor fit]
CCCn1c2ccccc2c2cnn(CC(=O)NCC3CCN(Cc4ccc(F)cc4)CC3)c(=O)c21 | 35.5 µM [falling, partial curve] | 
COc1cc(C2C(C#N)=C(N)Oc3cc(C)n(CCN4CCOCC4)c(=O)c32)cc(OC)c1OC (stereo not drawn) | 35.5 µM [rising, partial curve, poor fit] | 0.282 µM [rising, partial curve, poor fit]
CCOC(=O)/C=C/C(=O)Nc1cccc([N+](=O)[O-])c1 | 22.4 µM [falling, partial curve, poor fit] | 
CCOC(=O)N1CCN(S(=O)(=O)c2ccc(C(=O)NNc3nc4cc(C)cc(C)c4s3)cc2)CC1 | 17.8 µM [falling, single point] | 3.98 µM [rising, full curve]
COc1ccc(NC(=S)Nc2cc(-c3ccccc3)[nH]n2)cc1Cl |  | 11.2 µM [rising, partial curve, poor fit]
N[C@@H](Cc1ccc(O)cc1)C(=O)O | 0.0794 µM [falling, partial curve, poor fit] | 0.000794 µM [rising, full curve, poor fit]
O=C(COc1ccc(Cl)cc1)N1CCN(Cc2ccc3c(c2)OCO3)CC1 | 10 µM [falling, partial curve, poor fit] | 10 µM [falling, single point]
CC(=O)N1CCc2cc(S(=O)(=O)NCCC(=O)N3CCN(Cc4ccccc4)CC3)ccc21 | 10 µM [rising, partial curve] | 15.8 µM [rising, partial curve]
COCCN(C(=O)CCCC(=O)Nc1ccccn1)C(C(=O)NC1CCCC1)c1ccc(C)cc1 (stereo not drawn) | 35.5 µM [rising, single point] | 
CCc1cc2c(C)ccc(C)c2nc1SCC(=O)Nc1c[nH]c(=O)[nH]c1=O | 35.5 µM [falling, single point] | 35.5 µM [falling, single point]
CCN(CC)CCNc1ccc(CO)c2sc3ccccc3c(=O)c12 | 11.2 nM [falling, full curve, poor fit] and 35.5 µM [falling, partial curve, poor fit] | 8.91 nM [falling, full curve, poor fit] and 11.2 µM [rising, partial curve]

SMILES | AC50 [1] | AC50 [2]
CCOc1ccccc1NC(C)C(=O)Nc1cc(C(F)(F)F)ccc1N1CCOCC1 (stereo not drawn) | 35.5 µM [rising, single point] | 35.5 µM [rising, single point]
Cc1ccc(F)cc1NC(=O)CCc1c(C)nn(-c2ccc(N3CCOCC3)nn2)c1C |  | 0.891 µM [falling, full curve, poor fit]
C/C(=N\NC(=O)c1cccs1)c1cccnc1 | 1.26 µM [falling, single point] | 0.891 µM [falling, partial curve]
CN1C(=O)C(CC(=O)Nc2ccc(F)cc2)N(Cc2cccs2)C1=S (stereo not drawn) | 35.5 µM [falling, partial curve, poor fit] | 0.891 µM [falling, full curve, poor fit]
COc1ccc(C)cc1NC(=O)CCc1c(C)nn(-c2ccc(N3CCCCC3)nn2)c1C | 5.01 µM [falling, partial curve, poor fit] | 0.282 µM [falling, full curve, poor fit]
N#Cc1nc(-c2ccc(OCc3ccccc3)cc2)oc1NCCCn1ccnc1 | 20 µM [rising, single point] | 
Cc1ccc(S(=O)(=O)N(C)CC(O)Cn2c3ccccc3c3ccccc32)cc1 (stereo not drawn) |  | 35.5 µM [rising, single point]
CC1Cc2cc(-c3csc(NC(=O)Cc4cccs4)n3)ccc2N1S(C)(=O)=O (stereo not drawn) |  | 2 µM [rising, full curve]
FC(F)(F)c1cc(-c2cccs2)nc2nc(N3CCOCC3)sc12 | 1.78 µM [falling, full curve] | 1.12 µM [falling, full curve, poor fit]
CCOc1ccc2nc3cc(N)ccc3c(N)c2c1 | 35.5 µM [rising, single point] | 0.00178 µM [rising, full curve, poor fit]
NS(=O)(=O)c1ccc(CCNC(=S)Nc2ccccc2)cc1 | 5.01 µM [falling, partial curve, poor fit] | 5.01 µM [falling, partial curve, poor fit]
Cc1ccc(S(=O)(=O)N2CCCC2C(=O)NC2CCCCC2)cc1 (stereo not drawn) |  | 35.5 µM [rising, single point]
CC1=CC(=Nc2c(C)n(C)n(-c3ccccc3)c2=O)C=C(C)C1=O |  | 14.1 µM [rising, single point]
CCCC[N+](C)(C)CCC(=O)NC(C)(C)CS(=O)(=O)[O-] |  | 25.1 µM [falling, partial curve, poor fit]
COc1cc(/C=C/C(=O)c2c(O)ccc3c(C)cc(=O)oc23)ccc1O | 22.4 µM [falling, single point] | 25.1 µM [falling, single point]
Cc1cc(C)nc(SC2=CS(=O)(=O)c3ccccc32)n1 | 7.08 µM [falling, partial curve] | 10 µM [falling, partial curve]
O=C(N/N=C1\SCC(=O)N1CCc1ccccc1)c1cccs1 |  | 1.26 µM [falling, full curve, poor fit]
O=C(Nc1nccs1)c1ccc(S(=O)(=O)NCC2CCCCC2)cc1 |  | 2.51 µM [rising, full curve]
N#CCCn1nc(-c2ccc([N+](=O)[O-])cc2)cc1Nc1ccccc1NC(=O)C(F)(F)F |  | 10 µM [rising, partial curve, poor fit]
CCCCCc1ccc(-c2ccc(=O)[nH]n2)cc1 | 14.1 µM [falling, single point] | 
O=C(NC1CCCCC1)N(Cc1ccccc1)Cc1ccco1 |  | 31.6 µM [rising, single point]
Cc1ccc(NC(=O)CS(=O)CC(=O)NC2CCN(Cc3ccccc3)CC2)c(C)c1 (stereo not drawn) | 15.8 µM [rising, single point] | 
CC(C)c1ccc(-c2noc(C3CCCN(S(C)(=O)=O)C3)n2)cc1 (stereo not drawn) |  | 31.6 µM [rising, single point]
Clc1ccc(OCCSc2nnnn2C2CCCCC2)cc1 |  | 35.5 µM [rising, single point]
O=C(COc1ccccc1-c1ccccc1)N/N=C/c1ccncc1 | 14.1 µM [falling, single point] | 
